Hit rate of the full screen: of about 340,000 compounds, about 6,200 (1.8%) were called active. Inconclusive results, whose numbers are uncertain, are shown with a selection of clear calls. The call rests on the fitted dose curve; in most records, active means well fitted activation curve with a large enough effect; inconclusive means small, poorly fitted or top-dose-only effect; inactive means no such curve, though single readings can be large or run the other way. Where the call is inconclusive, the potency comes from a doubtful curve fit.
Test: A quantitative high throughput screen for small molecules that induce DNA re-replication in SW480 colon adenocarcinoma cells. Further: nearly all actives have a fitted effect of over 55% in size. On re-replication activation: % of control where 0% means no effect.
Details: Hoechst DNA content imaging, 48 h; re-replication activation: at 46.1 µM (top of the series) unless noted
Outline: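 250 cells/well; 23 nL cpd via pin tool; 48 hr, 37 C, 5% CO2; Hoechst 40 min; imager read of total nuclear intensity, ex 405/em 500-530 nm.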
Potency means the concentration at half of the fitted maximal effect.

SMILES	Potency	re-replication activation
CC(C)C(C)NC(=O)COc1ccc([N+](=O)[O-])cc1Cl (stereo unspecified)	inconclusive: 2.91 µM [activator, single point]	
Cc1c(Cl)cccc1NC(=S)NC1CCN(C(C)C)CC1	inconclusive: 29.1 µM [activator, single point]	
CCOc1ccc(C(=O)Nc2ccc(N3CCN(C)CC3)cc2)cc1Br	inconclusive: 23.1 µM [activator, single point]	
COc1ccc(-c2csc(NC(=O)c3ccccc3NS(=O)(=O)c3ccc(F)c(F)c3)n2)cc1	inconclusive: 9.2 µM [activator, single point]	
COc1c(C)cccc1C(=O)NCCCNC(=O)c1ccc(C)nc1	inactive	
COc1cc2c(cc1NC(=O)Nc1ccc(C)cc1)oc1ccccc12		inactive: -1.36% [at 9.22 µM]
Oc1oc(-c2ccco2)nc1C=Nc1cccc(Cl)c1	inconclusive: 29.1 µM [activator, partial curve, poor fit]	
CC1=NCCN1CCNC(=O)Nc1ccc(C(C)(C)C)cc1	inactive	
NC(=O)NC(=O)CSc1nc2cc([N+](=O)[O-])ccc2n1-c1cccc(C(F)(F)F)c1	inconclusive: 18.4 µM [activator, single point]	
Cc1ccccc1CN1N=C(/C=C/c2ccccc2)CCC1=O	inactive	
COc1ccc(O)c(/C=N/NC(=O)CCC(=O)Nc2ccc(F)cc2)c1	inactive	
CCOC(=O)C1(Cc2ccc(OC)cc2)CCN(C(=O)C2=CCCC2)CC1	inactive	
CCc1nc(SCC(=O)Nc2ccc(N(CC)CC)cc2)n[nH]1	inconclusive: 18.4 µM [activator, single point]	
Cc1ccsc1/C=N\NC(=O)CC(=O)NCc1ccccc1	inactive	
CCOc1ccccc1NC(=O)CCSc1nc2n[nH]c(C)c2c(=N)n1-c1ccccc1Cl	inconclusive: 18.4 µM [activator, single point]	
Cc1ccnc2nc(C(=O)Nc3ccc4c(c3)OCO4)nn12	inactive	
Cc1c(C)n(Cc2ccccc2)c2ccc(C(=O)NCCCN3CCOCC3)cc12	inactive	
Cc1csc(NC(=O)c2ccc(C)c(S(=O)(=O)N3CCCCC3)c2)n1	inactive	
CCOc1ccc(Nc2nc(Cc3nnc(SCC(=O)O)o3)cs2)cc1	inactive	
C=CCC[C@H](Cc1ccc(F)cc1)C(=O)OC[C@H](Cc1c[nH]c2ccccc12)NC(=O)[C@H](CC=C)CC(=O)N(CCO)Cc1ccccc1	inconclusive: 29.1 µM [activator, single point]	
Cc1onc(-c2ccccc2Cl)c1C(=O)OCC(=O)Nc1cccc(S(=O)(=O)N2CCOCC2)c1	inconclusive: 3.66 µM [activator, partial curve, poor fit]	
CCC(C(=O)NCCN1CCN(C)CC1)n1c(C)c2cnn(-c3ccccc3)c(=O)c2c1C (stereo unspecified)	inconclusive: 29.1 µM [activator, single point]	
O=C(Nc1ccc(OCC(F)(F)C(F)F)c(C(F)(F)F)c1)c1ccccc1	inactive	

SMILES	Potency	re-replication activation
O=C(Nc1cccc(Cl)c1)N1CCN2C(=O)c3ccccc3C12c1ccccc1 (stereo unspecified)	inconclusive: 18.4 µM [activator, partial curve, poor fit]	
NC(=S)N1OC[C@@H]2COc3ccc4ccccc4c3[C@@H]21	inconclusive: 16.4 µM [activator, single point]	
O=C1N/C(=N\N=C\c2cccs2)SC1Cc1cccc(Cl)c1Cl (stereo unspecified)	active: 7.31 µM	
COC(=O)c1cccc(Cn2c(Cl)c(/C=N/Nc3ccccc3C)sc2=O)c1	active: 10.3 µM	
COc1ccc(-c2cc3ccc(O)cc3oc2=O)cc1	active: 18.4 µM	
O=C(Nc1ccc(N2CCN(C(=O)c3ccco3)CC2)cc1)c1ccc2c(c1)OCO2	inconclusive: 18.4 µM [activator, partial curve, poor fit]	
CCC(C)c1ccc(S(=O)(=O)Nc2cccnc2)cc1 (stereo unspecified)	inactive	
CC(=O)N1c2ccc(S(=O)(=O)N3CCC(C(=O)NCc4ccc(C)cc4)CC3)cc2CC1C (stereo unspecified)	inactive	
Cn1c(-c2cc3c(C(F)(F)F)nn(C)c3s2)n[nH]c1=S	inactive	
COC(=O)c1sc2cnccc2c1N	inconclusive: 23.1 µM [activator, partial curve, poor fit]	
CCOC(=O)N1CCN(C(=O)COC(=O)c2oc3ccc(OC)cc3c2C)CC1	inactive	
Cc1cc(N2CCOCC2)ccc1/C=C\[N+](=O)[O-]	active: 5.8 µM	
O=C(O)c1cccc(C(=O)Nc2cccc(NC(=O)C3CCCO3)c2)c1 (stereo unspecified)	inconclusive: 0.146 µM [activator, full curve, poor fit]	
Cc1ccc(NC(=O)c2cccnc2)c([N+](=O)[O-])c1	inconclusive: 18.4 µM [activator, single point]	
Cc1c(CCO)c(=O)oc2n[nH]c(-c3ccccc3)c12	inactive	
CCOc1cc2[nH]c(=S)n(Cc3ccc(C(=O)NCCCOC)cc3)c(=O)c2cc1OCC	inconclusive: 23.1 µM [activator, single point]	
CC(Sc1nnc(-c2cccs2)n1-c1ccccc1)C(=O)NCc1ccc2c(c1)OCO2 (stereo unspecified)	inactive	
COc1ccc(C2=NN(C(C#N)c3ccc(OC)c(OC)c3)C(c3ccccc3)C2)cc1 (stereo unspecified)	inconclusive: 6.51 µM [activator, partial curve, poor fit]	
O=C(CCCN1C(=O)S/C(=C\C=C\c2ccccc2)C1=O)Nc1ccc(O)cc1	inconclusive: 18.4 µM [activator, single point]	
COc1ccc(/C=C/C(=O)c2ccccc2)cc1COc1ccc(F)cc1	inconclusive: 18.4 µM [activator, single point]	
COC(=O)N1c2ccccc2CCc2ccccc21	inconclusive: 29.1 µM [activator, single point]	
O=C1CN(C(=O)c2cc([N+](=O)[O-])ccc2Cl)C(c2ccc(F)cc2)c2cc(F)ccc2N1 (stereo unspecified)	inactive	
Cc1[nH]nc2c1C(c1ccc(-c3ccc(Cl)cc3)o1)C(C#N)=C(N)O2 (stereo unspecified)	inconclusive: 29.1 µM [activator, single point]	

Part of the list above in a different format:
SMILES,Potency,re-replication activation
CCc1nc(SCC(=O)Nc2ccc(N(CC)CC)cc2)n[nH]1,"inconclusive: 18.4 µM [activator, single point]",
O=C(Nc1ccc(OCC(F)(F)C(F)F)c(C(F)(F)F)c1)c1ccccc1,inactive,
O=C1N/C(=N\N=C\c2cccs2)SC1Cc1cccc(Cl)c1Cl (stereo unspecified),active: 7.31 µM,

— PubChem BioAssay AID624297 (National Center for Advancing Translational Sciences (NCATS), 2012)
